Measurements from “University of Dundee, Small-Polar-MMV Screening Library” (2021), ChEMBL document CHEMBL3988442.

Amino acid sequences for entries named in this document (tags omitted).
UniProt E9BF75, entry or part of it: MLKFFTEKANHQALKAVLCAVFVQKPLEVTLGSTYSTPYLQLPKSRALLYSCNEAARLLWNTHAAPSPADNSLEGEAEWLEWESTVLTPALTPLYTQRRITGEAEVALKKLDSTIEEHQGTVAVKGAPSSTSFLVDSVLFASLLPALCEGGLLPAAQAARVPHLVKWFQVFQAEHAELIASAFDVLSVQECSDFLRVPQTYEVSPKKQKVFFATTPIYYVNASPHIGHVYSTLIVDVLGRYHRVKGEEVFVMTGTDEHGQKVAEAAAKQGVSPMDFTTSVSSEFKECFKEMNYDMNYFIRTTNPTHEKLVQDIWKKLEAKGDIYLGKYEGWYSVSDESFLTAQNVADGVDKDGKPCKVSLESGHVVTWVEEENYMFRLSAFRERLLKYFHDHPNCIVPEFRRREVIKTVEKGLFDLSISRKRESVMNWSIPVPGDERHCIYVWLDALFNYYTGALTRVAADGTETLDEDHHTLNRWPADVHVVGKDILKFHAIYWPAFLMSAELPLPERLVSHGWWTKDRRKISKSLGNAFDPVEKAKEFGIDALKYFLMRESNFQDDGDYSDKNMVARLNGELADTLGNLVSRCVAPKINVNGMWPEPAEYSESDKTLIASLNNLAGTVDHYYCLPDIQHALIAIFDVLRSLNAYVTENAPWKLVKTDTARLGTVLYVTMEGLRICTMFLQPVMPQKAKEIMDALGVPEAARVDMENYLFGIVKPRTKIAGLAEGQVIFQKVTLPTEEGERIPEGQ

Mtb heat-shock: 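Assay on Mycobacterium tuberculosis, filed only as a heat shock assay from Cornell; the read-out is not stated. The concentration is filed as 10 mM, unlikely as a test dose, so the dose is not known. Direction is inferred from retests: higher values go with stronger inhibition. Size under these conditions: about 69,000 compounds, about 930 of them at 50% or above in at least one test.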
LdMetRS: 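Primary screen of methionyl-tRNA synthetase; the read-out is not stated. Target: Methionyl-tRNA synthetase (putative), Leishmania donovani (UniProt E9BF75). The test concentration is not given. The values are filed as inhibition. About 68,000 compounds were tested under these conditions; 0.035% (about 24) showed 50% or more at least once.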
Mtb growth Cornell: 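Whole-cell assay for inhibitors of Mycobacterium tuberculosis growth, labelled Cornell in the record; the read-out is not stated. The concentration is filed as 10 mM, unlikely as a test dose, so the dose is not known. Higher means stronger inhibition (inferred from two other growth screens of the library). About 53,000 compounds were tested under these conditions; 1.7% (about 900) showed 50% or more at least once.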

All values are in %.
How 0% and 100% were set is not recorded. Most values in the screen are low, and negative values occur.
This is an unselected part of the compounds tested.
A dash means the value is not listed here; it may have been measured.

| SMILES | Mtb heat-shock | LdMetRS | Mtb growth Cornell |
|---|---|---|---|
| `CC(=O)N1CCc2c(nc(N(C)C)nc2N(C)CCC2CCCCO2)C1` (stereo not drawn) | -24.51 | 0.361 | -8.037 |
| `CC(Oc1cc(Cl)cc(Cl)c1)C(=O)NCCOCC(N)=O` (stereo not drawn) | -10.08 | 8.709 | -19.42 |
| `[H][C@@]12CCN(C(=O)Cc3ccc(O)cc3)C[C@]1([H])[C@@H](c1ccccc1)CN2C` | -12.85 | - | -8.576 |
| `O=C(CN1CCc2cncnc2C1)Nc1ccc(Cl)cn1` | -24.73 | 8.382 | -14.12 |
| `CC(C)N(C)Cc1cnc2n1CCN(Cc1ccsc1)C2.O=C(O)C(F)(F)F.O=C(O)C(F)(F)F` | -17.54 | - | - |
| `CSc1ccsc1C(=O)NC(Cc1ccccc1)C(N)=O` (stereo not drawn) | 2.53 | 1.087 | -31.54 |
| `Cc1nnc(N2CCCC3(CN(Cc4ccc(C)s4)CCO3)C2)o1.O=C(O)C(F)(F)F.O=C(O)C(F)(F)F` (stereo not drawn) | -16.9 | - | 7.414 |
| `O=C(NCc1cncc2c1CCN(Cc1ccccc1)C2)C1CC1` | - | 0.7519 | - |
| `CC1CCCCN1c1nc2c(c(=O)[nH]1)CCN(Cc1ccccc1F)C2` (stereo not drawn) | 4.496 | 9.176 | - |
| `O=C(CC1CC1)N1CCC2(CCCN(CCOc3ccccc3)C2)C1.O=C(O)C(F)(F)F` (stereo not drawn) | -8.964 | - | 25.28 |
| `CC(CCc1ncnn1Cc1cccc(Cl)c1)N1CCCC1` (stereo not drawn) | -0.9091 | 10.92 | - |
| `CCOc1ccc(CN[C@@H]2COC[C@H]2c2ccc(F)cc2)cc1.O=C(O)CC(O)(CC(=O)O)C(=O)O` | -0.6597 | - | -6.38 |
| `CCCc1cc(NCc2nc(COC)no2)n2nccc2n1` | -7.694 | 5.852 | 10.87 |
| `Cc1cc2nccc(C3CCCN(C(=O)c4ccccc4F)C3)n2n1` (stereo not drawn) | 11.41 | 8.511 | 8.36 |
| `CC(C)c1ncc(CNC2(c3ccc(Cl)cc3)CC2)cn1` | -7.59 | 14.79 | -12.77 |
| `CC(=O)N1CCCCC1c1ncnn1-c1ccc2nc(C)sc2c1` (stereo not drawn) | 4.514 | 4.032 | -9.976 |
| `CC(C)NC(=O)c1cc2c([nH]c1=O)CC(c1cccs1)CC2=O` (stereo not drawn) | 6.498 | 12.21 | -1.779 |
| `O=C(O)C(F)(F)F.[H][C@@]12CCN(S(=O)(=O)c3ccccc3)C[C@]1([H])[C@@H](CN(C)C)OC2` | -8.087 | - | -15.91 |
| `[H][C@@]12CNC[C@]1(C(=O)OC)CN(Cc1nc(C)c[nH]1)C2` | -6.383 | - | -13.35 |
| `CC(NCc1ccsc1)c1ccc2c(c1)NC(=O)CO2` (stereo not drawn) | 7.575 | 15.3 | - |
| `Cc1cc(C(=O)N2CCCC(c3nccn3Cc3ccncc3)C2)no1` (stereo not drawn) | -9.216 | 12.04 | 4.552 |
| `COCC(=O)NC1CC2(CCN(CC3CC3)CC2)Oc2ccccc21` (stereo not drawn) | - | 5.602 | - |
| `O=C(c1ccc(-c2cccc3c2CCNC3)o1)N1CCCC1` | 54.8 | 3.069 | -2.755 |
| `COc1ccsc1C(=O)N1CCCC(n2cncn2)C1` (stereo not drawn) | 1.44 | 13.24 | - |
| `Cc1cc(NCc2cc3n(n2)CCCN(C(=O)C2CCC2)C3)ncn1` | -2.1 | 15.95 | 15.74 |
| `CCC[C@@H]1CN(Cc2ccc3c(c2)OCCO3)C[C@H]1C(=O)O` | 13.86 | 14.05 | 7.278 |
| `O=C1[C@@H]2CCN(CC3CC3)C[C@@H]2OCCN1c1cccnc1` | - | 4.53 | - |
| `O=C(Cn1cnc(-c2cccs2)cc1=O)Nc1cccnc1` | -16.93 | 14.39 | -6.605 |
| `CC(CNC(=O)c1ccco1)N1CCc2sccc2C1` (stereo not drawn) | 6.925 | 9.392 | - |
| `COc1cc(CNC(=O)C2CC(=O)N(C(C)C)C2)ccn1` (stereo not drawn) | 19.38 | 2.454 | 6.891 |
| `O=C(c1ccccc1F)N1CC2(CCNCC2)c2cc(Cl)ccc21` | - | 17.63 | - |
| `CCc1ccsc1C(=O)N1CCN(CC(N)=O)CC1` | -11.6 | 7.104 | - |
| `Cc1ccc(-c2ncc(CNc3cnccc3CO)s2)o1` | -14.57 | 8.696 | 9.838 |
| `Cc1cccc(Cn2c3c(ccc2=O)CCN(Cc2ccoc2)CC3)n1` | - | 9.5 | - |
| `CCOCC(=O)NC(C)c1cc(C)ccc1C` (stereo not drawn) | -6.698 | - | - |
| `O=C1NC(c2ccccc2)=N[C@@]12CC[C@@H]1CN(Cc3ccco3)C[C@@H]12` | - | 15.48 | - |
| `O=C(O)C(F)(F)F.[H][C@]12CCN(S(=O)(=O)c3cccs3)C[C@@]1([H])OCCN(CC)C2` | 12.28 | - | 9.606 |
| `CC(C)c1ccc(S(=O)(=O)Cc2nc(N)nc(N(C)C)n2)cc1` | -18.38 | 8.6 | 11.51 |
| `[H][C@@]12CS(=O)(=O)C[C@]1([H])N(Cc1ccc3nsnc3c1)CCN2CCOC` | 6.624 | - | - |
| `Cc1nc(C2CCCN(C(=O)c3ccc(N4CCCC4)nc3)C2)no1` (stereo not drawn) | -7.505 | 16.67 | - |
| `COC(=O)N1CCC(NC2CCSCC2)C1` (stereo not drawn) | 32.38 | 7.666 | 12.56 |
| `CCc1ccc(CN2CC[C@@H]3NC(=O)CC[C@@H]32)o1` | - | 2.801 | - |
| `O=C(O)C(F)(F)F.[H][C@@]12CN(Cc3nccs3)CCC[C@]1(C(=O)OCC)CN(S(C)(=O)=O)C2` | -12.91 | - | 24.06 |
| `CCS(=O)(=O)N1CCC(Nc2c(Cl)cccc2C#N)CC1` | -23.35 | 15.57 | 1.132 |
| `Cl.Cl.O[C@@H]1C[C@@](CNCc2cccc(Cl)c2)(COc2cnccn2)C[C@@H]1O` | -52.32 | - | 10.69 |
| `COCCN1CCC2(CC1)CC(NCc1cncn1C)c1ccccc12.O=C(O)C(F)(F)F.O=C(O)C(F)(F)F` (stereo not drawn) | -29.11 | - | -16.45 |
| `Nc1nccc(-c2c[nH]nc2C2CCCCC2)n1` | 1.77 | 11.19 | - |
| `Cc1ccc(OCc2ccc(C(=O)O)s2)cc1C` | -13.07 | 12.31 | - |
| `C1CC(c2noc(C3CC3)n2)CN(Cc2noc(C3CC3)n2)C1` (stereo not drawn) | 33.03 | 7.19 | 8.547 |
| `Nc1cc(N2CCCC(COc3ccc(F)cc3)C2)nc(N)n1` (stereo not drawn) | 0.7864 | 8.403 | -4.088 |
| `Cc1noc(CN(C)CC2CCN(CCO)CC2)n1` | -3.714 | 3.261 | -37.06 |
| `CC(C)Cc1cc(C(=O)NCC(c2ccc(F)cc2)N(C)C)n(C)n1` (stereo not drawn) | 18.36 | 14.44 | 11.94 |
| `Cn1nc(C#N)c2c1CN(C(=O)c1nc[nH]n1)CCC2` | 2.34 | 7.283 | -11.41 |
| `CN(C)C(=O)c1cnc2n1CCN(Cc1cccnc1)C2` | - | 9.95 | - |
| `CCN(C)S(=O)(=O)c1ccc(Cl)cc1C#N` | -19.13 | 16.91 | 24.46 |
| `c1csc(-c2noc(COCC3CCCO3)n2)c1` (stereo not drawn) | 27.11 | -2.419 | -29.88 |
| `COc1ccc(CNC2CCc3ncnn3C2)cc1OCC1CC1` (stereo not drawn) | 10.17 | 8.108 | 7.414 |
| `CO[C@H]1CN(Cc2ccccc2F)[C@@H]2CCCO[C@H]12` | - | 10.75 | - |
| `Cn1ccnc1C(=O)NCc1cnc2n1CCN(CC1CC1)CC2` | - | 15.74 | - |
| `COc1ccc(O)c(C(=O)NCC2CCCN(C3CCOCC3)C2)c1` (stereo not drawn) | 3.905 | 11.92 | -7.904 |
| `c1ccc2oc(CN3CCCC3c3noc(C4CC4)n3)nc2c1` (stereo not drawn) | 17.43 | 14.29 | - |
| `Cc1ccc(C(=O)N2Cc3c(CN(C)C)nn(C)c3C2)cc1C.O=C(O)C(F)(F)F` | -17.18 | - | - |
| `O=C1NC(c2ccccc2)=N[C@@]12CC[C@@H]1CN(Cc3ccoc3)C[C@@H]12` | - | 7.492 | - |
| `Cc1nnc(N2CC[C@@]3(O)CCNC[C@H]3C2)c2ccccc12` | - | 9.137 | - |
| `CC(NCCCC#N)c1ccc(-c2cccnc2)cc1` (stereo not drawn) | -9.8 | 8.179 | -26.63 |
| `CC(C)CN1CCc2c(CN(C)Cc3ccco3)cncc2C1` | - | -0.274 | - |
| `CC(C)c1noc(CCC(=O)NCC2CCOC2)n1` (stereo not drawn) | 10.94 | 18.18 | - |
| `CN(C)C(=O)[C@@H]1C[C@@H]2CCN(C3CCOCC3)C[C@H]2O1` | - | 14.21 | - |
| `Cc1nc(O)cc(CN2CC=C(c3cnn(-c4ccccc4)c3)CC2)n1` | 0.1979 | 3.495 | -14.51 |
| `Cc1ncc2c(n1)CN(CC(=O)Nc1cc(C)on1)CC2` | -10.28 | 9.218 | 12.92 |
| `CCCn1c(C)c(CC(=O)NCC(N)=O)c2c1CC(C)(C)CC2=O` | -0.8729 | 13.35 | -8.493 |
| `CCc1nnc(CN2CCC3(CC2)Nc2ccccc2NC3=O)o1` | 5.08 | 5.245 | -12.06 |

The first 6 entries again:

{"smiles": "CC(=O)N1CCc2c(nc(N(C)C)nc2N(C)CCC2CCCCO2)C1", "stereo": "stereo not drawn", "Mtb heat-shock": -24.51, "LdMetRS": 0.361, "Mtb growth Cornell": -8.037}
{"smiles": "CC(Oc1cc(Cl)cc(Cl)c1)C(=O)NCCOCC(N)=O", "stereo": "stereo not drawn", "Mtb heat-shock": -10.08, "LdMetRS": 8.709, "Mtb growth Cornell": -19.42}
{"smiles": "[H][C@@]12CCN(C(=O)Cc3ccc(O)cc3)C[C@]1([H])[C@@H](c1ccccc1)CN2C", "Mtb heat-shock": -12.85, "Mtb growth Cornell": -8.576}
{"smiles": "O=C(CN1CCc2cncnc2C1)Nc1ccc(Cl)cn1", "Mtb heat-shock": -24.73, "LdMetRS": 8.382, "Mtb growth Cornell": -14.12}
{"smiles": "CC(C)N(C)Cc1cnc2n1CCN(Cc1ccsc1)C2.O=C(O)C(F)(F)F.O=C(O)C(F)(F)F", "Mtb heat-shock": -17.54}
{"smiles": "CSc1ccsc1C(=O)NC(Cc1ccccc1)C(N)=O", "stereo": "stereo not drawn", "Mtb heat-shock": 2.53, "LdMetRS": 1.087, "Mtb growth Cornell": -31.54}